Experiment [1] has as its target unconventional prefoldin RPB5 interactor (URI1) (human (endogenous in A375-P, A2058, SK-MEL-28, UACC-62)) (UniProt O94763). The experiment in a line: affinity purification with mass spectrometry; endogenous URI1 immunoprecipitated (URI1 antibody coupled to Protein G Agarose, 5 mg lysate, TNN buffer, 4 h, IgG control) from A375-P cells treated 16 h with 1 μM PLX4720 or DMSO; glycine elution, trypsin digest, LC-MS/MS.

Protein sequences, listed by entry. Tags and fused reporters are not part of them.
UniProt O94763: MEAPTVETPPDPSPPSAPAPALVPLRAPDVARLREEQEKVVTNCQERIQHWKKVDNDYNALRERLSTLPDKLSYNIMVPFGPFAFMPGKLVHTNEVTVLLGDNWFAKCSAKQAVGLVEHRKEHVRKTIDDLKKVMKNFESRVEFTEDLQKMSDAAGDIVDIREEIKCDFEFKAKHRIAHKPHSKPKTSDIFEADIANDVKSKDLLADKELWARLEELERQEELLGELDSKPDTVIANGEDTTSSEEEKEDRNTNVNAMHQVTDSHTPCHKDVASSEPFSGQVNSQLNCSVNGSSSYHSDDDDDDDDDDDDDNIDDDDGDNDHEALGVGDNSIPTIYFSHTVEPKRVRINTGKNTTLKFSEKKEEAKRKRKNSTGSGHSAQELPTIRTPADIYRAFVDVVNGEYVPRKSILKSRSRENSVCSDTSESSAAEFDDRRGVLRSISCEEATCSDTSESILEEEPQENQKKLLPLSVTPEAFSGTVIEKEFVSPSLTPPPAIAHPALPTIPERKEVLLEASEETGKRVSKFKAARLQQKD
UniProt Q9NUG6: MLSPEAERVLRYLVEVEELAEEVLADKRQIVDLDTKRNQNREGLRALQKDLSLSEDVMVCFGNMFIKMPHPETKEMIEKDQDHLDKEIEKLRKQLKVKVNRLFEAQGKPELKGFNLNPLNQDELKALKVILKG
UniProt Q9UHV9: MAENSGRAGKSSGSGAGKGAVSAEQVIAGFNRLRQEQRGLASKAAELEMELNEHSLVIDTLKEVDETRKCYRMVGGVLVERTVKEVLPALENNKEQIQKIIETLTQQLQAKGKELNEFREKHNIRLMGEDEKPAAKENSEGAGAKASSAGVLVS
UniProt O15212: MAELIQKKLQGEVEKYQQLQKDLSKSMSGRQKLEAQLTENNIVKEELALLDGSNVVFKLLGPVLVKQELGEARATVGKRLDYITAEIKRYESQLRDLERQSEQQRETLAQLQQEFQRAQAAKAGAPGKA
UniProt P36873: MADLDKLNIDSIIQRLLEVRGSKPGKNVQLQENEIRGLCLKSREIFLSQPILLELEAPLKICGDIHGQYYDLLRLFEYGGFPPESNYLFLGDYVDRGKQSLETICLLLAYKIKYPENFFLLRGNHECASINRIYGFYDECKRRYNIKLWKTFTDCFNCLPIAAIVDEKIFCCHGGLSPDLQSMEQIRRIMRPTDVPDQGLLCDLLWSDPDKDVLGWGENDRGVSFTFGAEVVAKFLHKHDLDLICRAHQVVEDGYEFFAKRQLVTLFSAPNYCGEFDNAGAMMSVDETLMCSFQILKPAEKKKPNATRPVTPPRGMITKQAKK
UniProt Q9Y265: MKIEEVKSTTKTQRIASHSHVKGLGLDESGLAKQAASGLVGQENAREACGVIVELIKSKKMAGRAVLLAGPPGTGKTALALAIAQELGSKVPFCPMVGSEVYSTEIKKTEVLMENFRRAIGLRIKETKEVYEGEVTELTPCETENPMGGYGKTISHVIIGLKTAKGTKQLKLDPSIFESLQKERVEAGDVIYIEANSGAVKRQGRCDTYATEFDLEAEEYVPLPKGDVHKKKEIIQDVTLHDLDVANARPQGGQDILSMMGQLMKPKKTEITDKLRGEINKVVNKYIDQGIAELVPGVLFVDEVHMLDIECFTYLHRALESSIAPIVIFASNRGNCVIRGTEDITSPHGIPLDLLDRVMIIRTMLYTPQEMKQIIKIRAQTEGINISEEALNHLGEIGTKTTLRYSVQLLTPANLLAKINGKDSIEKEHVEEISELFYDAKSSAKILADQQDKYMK
UniProt Q96MX6: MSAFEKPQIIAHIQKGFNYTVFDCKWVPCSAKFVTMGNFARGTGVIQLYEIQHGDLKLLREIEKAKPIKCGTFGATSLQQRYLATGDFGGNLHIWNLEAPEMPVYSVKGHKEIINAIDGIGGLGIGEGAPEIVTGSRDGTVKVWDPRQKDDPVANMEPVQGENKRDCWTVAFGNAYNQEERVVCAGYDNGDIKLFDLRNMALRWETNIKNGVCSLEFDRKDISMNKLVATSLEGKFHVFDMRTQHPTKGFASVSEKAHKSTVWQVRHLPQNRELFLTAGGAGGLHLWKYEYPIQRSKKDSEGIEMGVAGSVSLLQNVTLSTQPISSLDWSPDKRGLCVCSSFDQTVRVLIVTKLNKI

Experiment [2] shares this target. Kind of experiment: condition: only DMSO control cells, without PLX4720; affinity purification with mass spectrometry; as a1, DMSO control cells only (BRAF V600E signalling not inhibited).

No constants are given. Whether binding was seen depends on the method and setting. In cells and extracts the contact can be indirect. Here binding means that the protein was enriched with, or labelled near, the bait; the list need not be complete. For some of these results: No binding means not detected with the bait.

For six substances, binding results are on record in PMC6533289.

In the case of PDRG1 (from UniProt Q9NUG6 1-133), in experiment [1], the binding result is given as “binds”. As for PFD2 (from UniProt Q9UHV9 1-154), in experiment [1], the binding result is “binds”.

Regarding PFD6 (from UniProt O15212 1-129), the binding entry in experiment [1] is listed as “binds”.

As for “PP1γ (protein phosphatase 1, catalytic subunit, gamma isoform) (from UniProt P36873 1-323)”, the binding entry is “binds” in experiment [1] and “no binding” in experiment [2]. Regarding RUVBL1 (from UniProt Q9Y265 1-456), in experiment [1], the binding result is on record as “binds”. For the substance WDR92 (from UniProt Q96MX6 1-357), the binding result in experiment [1] is recorded as “binds”.
